Assay results: PMC7862700
The list shows a part of the results, in another mix than the full data. At the low end of the ranking, values are background and their order means little.

Target: T1, ETS2 (UniProt P15036)
T1 sequence: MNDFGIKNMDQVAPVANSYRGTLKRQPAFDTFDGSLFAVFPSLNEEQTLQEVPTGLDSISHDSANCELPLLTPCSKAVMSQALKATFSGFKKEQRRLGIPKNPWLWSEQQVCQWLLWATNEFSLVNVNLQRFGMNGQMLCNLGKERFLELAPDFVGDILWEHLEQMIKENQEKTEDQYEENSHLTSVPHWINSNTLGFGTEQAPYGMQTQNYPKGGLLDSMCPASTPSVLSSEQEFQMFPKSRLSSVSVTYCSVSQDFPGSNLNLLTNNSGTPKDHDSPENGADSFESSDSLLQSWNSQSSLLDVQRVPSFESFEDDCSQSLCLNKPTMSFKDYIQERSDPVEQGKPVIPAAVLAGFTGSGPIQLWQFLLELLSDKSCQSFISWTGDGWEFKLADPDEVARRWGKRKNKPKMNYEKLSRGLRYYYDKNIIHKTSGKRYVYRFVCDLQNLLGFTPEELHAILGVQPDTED
Experiment: DAPPL (digital affinity profiling via proximity ligation, sequencing)
Conditions: 10 mM Tris-HCl pH 7.5, 50 mM NaCl, 1 mM DTT, 4% glycerol, room temperature, 30 min; GST-TFs on glutathione beads, 16-mer random dsDNA library, 0.1% …; high values mean tight binding; double strand, one strand shown; scale: fold enrichment (6-mer frequency, TF over GST control)

Question: TAGGCA was tested. Which binding signal did it give?
Answer: 0.986

Question: TTTGAC was tested. Which binding signal did it give?
Answer: 1.33

Question: CAAGTT was tested. Which binding signal did it give?
Answer: 1.13

Question: For GGGAAA, which binding signal is on record?
Answer: 0.994

Question: With TATAGC as the sequence, how does the binding signal read?
Answer: 1.18

Question: How did the binding signal turn out when AAATCG was run?
Answer: 0.969

Question: How did the binding signal turn out when CCCCAC was run?
Answer: 1.22

Question: Which binding signal does the source give for CTGGTG here?
Answer: 0.93

Question: Which binding signal does the source give for CAATGG here?
Answer: 0.961

Question: Which binding signal does the source give for CCTCTG here?
Answer: 1.42

Question: For TGCCCA, which binding signal is on record?
Answer: 1.12

Question: For CCTGCG, which binding signal is on record?
Answer: 1.27

Question: Which binding signal does the source give for TTAAGA here?
Answer: 0.934

Question: Which binding signal does the source give for AGAATA here?
Answer: 1

Question: With GCGATC as the sequence, how does the binding signal read?
Answer: 0.915

Question: Which binding signal does the source give for CACGCA here?
Answer: 1.03

Target: T2, ETV3 (UniProt P41162-2)
T2 sequence: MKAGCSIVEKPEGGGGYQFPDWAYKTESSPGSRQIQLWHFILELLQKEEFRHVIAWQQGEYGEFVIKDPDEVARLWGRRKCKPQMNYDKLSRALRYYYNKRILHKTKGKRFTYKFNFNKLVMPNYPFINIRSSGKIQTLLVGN
Experiment: as above
Conditions: 10 mM Tris-HCl pH 7.5, 50 mM NaCl, 1 mM DTT, 4% glycerol, room temperature, 30 min; GST-TFs on glutathione beads, 16-mer random dsDNA library, 0.1% …; high values mean tight binding; double strand, one strand shown; scale: fold enrichment (6-mer frequency, TF over GST control)

Question: How did the binding signal turn out when TGCGAC was run?
Answer: 1.27

Question: TGCGAA was tested. Which binding signal did it give?
Answer: 1.16

Question: TTGAAA was tested. Which binding signal did it give?
Answer: 1.17

Question: ACTTCG was tested. Which binding signal did it give?
Answer: 1.42

Question: Which binding signal does the source give for TCATAC here?
Answer: 1.01

Question: CACGCG was tested. Which binding signal did it give?
Answer: 1.09

Question: With GACACT as the sequence, how does the binding signal read?
Answer: 1.03

Question: For GATAGC, which binding signal is on record?
Answer: 1.05

Question: Which binding signal does the source give for TTTTAG here?
Answer: 1.21

Question: Which binding signal does the source give for TAAAGC here?
Answer: 1.1

Question: TGTCCG was tested. Which binding signal did it give?
Answer: 1.6

Question: How did the binding signal turn out when TGGGGT was run?
Answer: 1.14

Question: Which binding signal does the source give for GTACAC here?
Answer: 1.21

Question: TTTGCA was tested. Which binding signal did it give?
Answer: 1.26

Question: With TCCTAG as the sequence, how does the binding signal read?
Answer: 1.32

Question: How did the binding signal turn out when AGATTA was run?
Answer: 0.958

Question: For TTGGTA, which binding signal is on record?
Answer: 1.18

Question: CACATA was tested. Which binding signal did it give?
Answer: 1.09

Question: TATCTG was tested. Which binding signal did it give?
Answer: 1.21

Question: TCAGCA was tested. Which binding signal did it give?
Answer: 0.982

Question: How did the binding signal turn out when AAGGGC was run?
Answer: 1.07

Question: For ACTGCA, which binding signal is on record?
Answer: 1.17

Question: Which binding signal does the source give for TTAGGT here?
Answer: 1.06
